One molecule from patent publication US9402839B2, “Selective targeting agents for mitochondria” (University of Pittsburgh—Of the Commonwealth System of …, priority 2006, dated 2016) can be followed below.

Each structure is given as a SMILES string.

This data set concerns rats subjected to volume-controlled hemorrhagic shock. Description: Survival of rats subjected to volume-controlled hemorrhagic shock. Type of data set: in vivo, rat. Conditions: End of second phase of hemorrhage; 2 μmol/kg i.v. An excerpt: Surgical procedures to obtain vascular access. All study protocols using rats followed the guidelines for the use of experimental animals of the US National Institutes of Health and were approved by the Institutional Animal Care and Use Committee at the University of Pittsburgh.
Male specific pathogen-free Sprague Dawley rats (CHARLES RIVER LABORATORIES, Wilmington, Mass.), weighing 150-250 g, were housed in a temperature-controlled environment with a 12-h light/dark cycle. The rats had free access to food and water. For experiments, rats were anesthetized with intramuscular ketamine HCl (30 mg/kg) and intraperitoneal sodium pentobarbital (35 mg/kg). Animals were kept in a supine position during the experiments. Lidocaine (0.5 ml of a 0.5% solution) was injected subcutaneously to provide local anesthesia at surgical cut-down sites. […]
Survival of rats subjected to volume-controlled hemorrhagic shock. Following surgical preparation and a 5-min stabilization period to obtain baseline readings, rats were subjected to hemorrhagic shock. […]
Blood pressure was recorded continuously using a commercial strain-gauge transducer, amplifier, and monitor (S90603a, SPACELABS, Redmond, Wash.). […] Hemoglobin concentration [Hb], lactate and glucose concentration were determined using an auto-analyzer (Model ABL 725, […], Westlake, Ohio). […]

As for `CC(C)C[C@@H](/C=C/[C@H](Cc1ccccc1)C(=O)N1CCC[C@H]1C(=O)N[C@H](C(=O)N[C@@H](CCCNC(=O)OCc1ccccc1)C(=O)NC1CC(C)(C)N([O])C(C)(C)C1)C(C)C)NC(=O)OC(C)(C)C` [XJB-5-131], the Blood lactate concentration was 5.6 ± 1.2 mEq/L.
